Assay results from patent US20250360111A1, “COMPOSITIONS OF AGPAT4 INHIBITORS AND METHODS OF USING THEREOF TO TREAT CANCER” (The University of Hong Kong, priority 2024, published 2025).
At least one structure is not confirmed: it was looked up by name or label, or the drawing left a doubt.

Experiments:
HCC = details: cited from earlier work
HCC cells (Huh7) = experiment: Rescue and PA addition experiments: migration, invasion, limiting dilution spheroid formation, western blot; type: cell-based, human; details: HCC cells overexpressing AGPAT4
Protocol: Cells at limited dilutions were cultured in 100 μL serum-free DM E M/F12 medium (Invitrogen) supplemented with 20 ng/mL human recombinant epidermal growth factor (Sigma-Aldrich), 10 ng/mL human recombinant basic fibroblast growth factor (Sigma-Aldrich), […] (Sigma-Aldrich), B27 (1:50; Invitrogen), 500 U/mL penicillin, […] (Invitrogen), and 0.25% methylcellulose (Sigma-Aldrich). Cells were cultured in suspension in polyHEMA-coated 96-well plates. The cells were replenished with 30 μL of the supplemented medium every second day. The wells were monitored for sphere formation for 7-10 days. The tumor-initiating cell frequency was calculated using extreme limiting dilution analysis.
Cells were lysed in RIPA buffer (Cell Signalling Technology) containing a complete protease inhibitor cocktail (Roche) and PMSF (Sigma-Aldrich). Protein lysates were quantified and resolved on an SDS-PAGE gel, transferred onto a PV DF membrane (Pall), immunoblotted with a primary antibody, and incubated with a secondary antibody. The antibody signal was detected using the A mersham ECL Select Western Blotting Detection Reagent (GE Healthcare). […]

Cc1ccc(F)c(NC(=O)Nc2ccc(-c3cccc4[nH]nc(N)c34)cc2)c1 [Linifanib]
efficacy and safety in HCC (HCC; single arm phase II clinical trial): effective in the treatment of the HCC with an acceptable safety profile

O=C1NC(=O)[C@@H](c2cn3c4c(cccc24)CCC3)[C@@H]1c1c[nH]c2ccccc12 [Tivantinib]
effect against HCC when added to sorafenib (HCC; phase I clinical trial): synergistic effect against HCC

CO[C@H]1C[C@@H]2CC[C@@H](C)[C@@](O)(O2)C(=O)C(=O)N2CCCC[C@H]2C(=O)O[C@H]([C@H](C)C[C@@H]2CC[C@@H](O)[C@H](OC)C2)CC(=O)[C@H](C)/C=C(\C)[C@@H](O)[C@@H](OC)C(=O)[C@H](C)C[C@H](C)/C=C/C=C/C=C/1C [rapamycin]
rescue of AGPAT4-induced metastasis, self-renewal and p-mTOR/S6K signalling (HCC cells (Huh7)): ability to rescue the AGPAT4-induced increase in metastasis
